Measured values as given in PubChem BioAssay AID248 (DTP/NCI, 2004).
The list is a part of this screen's results and no random one: it is rich in T/C values a quarter to a half above the control, in often repeated tests (any T/C) and in doses without a T/C. Further doses and runs are listed elsewhere. T/C: endpoint of the treated group in % of that of the vehicle group. Some doses have a count of surviving animals in place of a T/C: the source files T/C as zero there, which appears to mark a toxic dose or a test without result, not a measured value. Some survivor counts are full or nearly so, which does not show that the dose was tolerated: the source hardly ever lists a survival T/C far under the control, and the zero likely stands for such cases as well. Survivors were counted at the toxicity check, usually on the fifth day, unless a day is given; later deaths do not show. Schedules are NCI's codes, read here as Q, the interval in days (D) or hours (H), X, the number of doses. Some schedules carry Z or #; the key to these is not given. Some doses were run more than once; the results are listed from low to high. For survival time, this PubChem deposit counts one and a half times the control or more as active, and values a quarter to a half above the control carry no call in these data; other NCI protocols may use other cut-offs.

Test system: L1210 leukemia ip in BDF1 mice, survival T/C
Assay: NCI In Vivo Anticancer Drug Screen. Data for tumor model L1210 Leukemia (intraperitoneal) in B6D2F1 (BDF1) mice
Settings: T/C endpoint: mean survival time, higher T/C = longer survival
[1] = dose: 400.0 mg/kg/injection, schedule: Q01DX001 (ip), vehicle: saline with Tween-80
[2] = dose: 400.0 mg/kg/injection, schedule: Q04DX003 (ip), vehicle: Klucel (hydroxypropylcellulose) (HPC)
[3] = dose: 100.0 mg/kg/injection, schedule: Q01DX009 (ip), vehicle: saline
[4] = dose: 200.0 mg/kg/injection, schedule: Q01DX009 (ip), vehicle: saline
[5] = dose: 400.0 mg/kg/injection, schedule: Q01DX009 (ip), vehicle: saline
[6] = dose: 300.0 mg/kg/injection, schedule: Q01DX009 (ip), vehicle: saline with Tween-80

Compound: CCC[CH2][Sn]([CH2]CCC)([CH2]CCC)[N]=C=S
- survivor count (dose: 1.56 mg/kg/injection, schedule: Q01DX001 (ip), vehicle: saline with Tween-80): 1 of 3
- survivor count (dose: 3.12 mg/kg/injection, schedule: Q01DX001 (ip), vehicle: saline with Tween-80): 0 of 3
- survivor count (dose: 6.25 mg/kg/injection, schedule: Q01DX001 (ip), vehicle: saline with Tween-80): 0 of 3 and 3 of 6
- survivor count (dose: 12.5 mg/kg/injection, schedule: Q01DX001 (ip), vehicle: saline with Tween-80): 2 of 6
- survivor count (dose: 25.0 mg/kg/injection, schedule: Q01DX001 (ip), vehicle: saline with Tween-80): 0 of 6
- survivor count (dose: 50.0 mg/kg/injection, schedule: Q01DX001 (ip), vehicle: saline with Tween-80): 0 of 6
- survivor count (dose: 100.0 mg/kg/injection, schedule: Q01DX001 (ip), vehicle: saline with Tween-80): 0 of 6 and 1 of 6
- survivor count (dose: 200.0 mg/kg/injection, schedule: Q01DX001 (ip), vehicle: saline with Tween-80): 0 of 6
- survivor count [1]: 0 of 6

Compound: [NH-]c1ccccc1C(=O)O.[NH-]c1ccccc1C(=O)O.[Ni+2]
- survivor count (dose: 100.0 mg/kg/injection, schedule: Q01DX009 (ip), vehicle: saline with Tween-80): 3 of 6

Compound: Cc1cc(C)c2ccc(Cl)nc2n1
- survivor count (dose: 100.0 mg/kg/injection, schedule: Q01DX009 (ip), vehicle: Klucel (hydroxypropylcellulose) (HPC)): 3 of 6

Compound: CCCCCCCCCCCCCCCC[N+]1(CCCC)CCOCC1
- survivor count [2]: 2 of 3

Compound: O=C(O)CCCCSc1ncnc2nc[nH]c12
- T/C (dose: 720.0 mg/kg/injection, schedule: Q01DX009 (ip), vehicle: saline with Tween-80): 126 % of control

Compound: [CH3][Sn]([CH3])([Cl])[Cl]
- survivor count (dose: 45.0 mg/kg/injection, schedule: Q01DX009 (ip), vehicle: saline): 2 of 6
- survivor count (dose: 65.0 mg/kg/injection, schedule: Q01DX009 (ip), vehicle: saline): 0 of 6

Compound: O=C(Nc1ccccc1)N(O)c1ccccc1
- survivor count (dose: 400.0 mg/kg/injection, schedule: Q01DX015 (ip), vehicle: methylcellulose (MC)): 2 of 6

Compound: OC(c1cc2ccc(C(F)(F)F)cc2c2cc(C(F)(F)F)ccc12)C1CCCCN1 (centres undefined)
- survivor count (dose: 12.5 mg/kg/injection, schedule: Q01DX009 (ip), vehicle: saline with Tween-80): 6 of 6
- survivor count (dose: 25.0 mg/kg/injection, schedule: Q01DX009 (ip), vehicle: saline with Tween-80): 6 of 6
- survivor count (dose: 50.0 mg/kg/injection, schedule: Q01DX009 (ip), vehicle: saline with Tween-80): 6 of 6
- survivor count [3]: 0 of 6
- survivor count (dose: 100.0 mg/kg/injection, schedule: Q04DX003 (ip), vehicle: Klucel (hydroxypropylcellulose) (HPC)): 6 of 6
- survivor count [4]: 0 of 6
- survivor count (dose: 200.0 mg/kg/injection, schedule: Q04DX003 (ip), vehicle: Klucel (hydroxypropylcellulose) (HPC)): 3 of 6
- survivor count [5]: 0 of 6
- survivor count [2]: 0 of 6

Compound: O=C1N2CCOC2=NC1(c1ccccc1)c1ccccc1
- survivor count [3]: 5 of 6
- survivor count [4]: 0 of 6
- survivor count (dose: 400.0 mg/kg/injection, schedule: Q04DX003 (ip), vehicle: saline): 5 of 6

Compound: CCN(CC)CCCC#CCN1CCCC1
- survivor count (dose: 200.0 mg/kg/injection, schedule: Q01DX009 (ip), vehicle: Klucel (hydroxypropylcellulose) (HPC)): 4 of 6
- survivor count [2]: 0 of 6

Compound: c1ccc2c3nc4ccccc4c-3scc2c1
- survivor count (dose: 400.0 mg/kg/injection, schedule: Q01DX001 (ip), vehicle: acetone): 0 of 6

Compound: O=C(CI)NCc1cn(C2CC(O)C(CO)O2)c(=O)[nH]c1=O (centres undefined)
- survivor count (dose: 200.0 mg/kg/injection, schedule: Q01DX005 (ip), vehicle: water): 1 of 3

Compound: CCOC(=O)Nc1ccc2c(c1)/C(=N\NC(N)=S)c1ccccc1-2
- survivor count [6]: 1 of 6
- survivor count (dose: 400.0 mg/kg/injection, schedule: Q01DX001 (ip), vehicle: saline): 3 of 6

Compound: Nc1nc(=S)[nH]c(C(=O)O)c1Oc1ccccc1
- survivor count (dose: 50.0 mg/kg/injection, schedule: Q01DX001 (ip), vehicle: Klucel (hydroxypropylcellulose) (HPC)): 6 of 6

Compound: Cc1cc(C)nc(N)c1
- survivor count (dose: 50.0 mg/kg/injection, schedule: Q04DX002 (ip), vehicle: saline): 0 of 3
- survivor count (dose: 100.0 mg/kg/injection, schedule: Q04DX002 (ip), vehicle: saline): 0 of 3
- survivor count (dose: 200.0 mg/kg/injection, schedule: Q04DX002 (ip), vehicle: saline): 0 of 3
- survivor count (dose: 400.0 mg/kg/injection, schedule: Q04DX002 (ip), vehicle: saline): 0 of 3

Compound: N#COc1cccc(OCCOc2cccc(OC#N)c2)c1
- survivor count [1]: 5 of 6

Compound: COc1cccc(/C=N/N=C(N)N)c1OC
- survivor count (dose: 125.0 mg/kg/injection, schedule: Q01DX Z (ip), vehicle: saline): 5 of 6
- survivor count (dose: 250.0 mg/kg/injection, schedule: Q01DX Z (ip), vehicle: saline): 0 of 6
- survivor count (dose: 500.0 mg/kg/injection, schedule: Q01DX Z (ip), vehicle: saline): 0 of 6

Compound: Oc1ccc(I)c2cccnc12
- survivor count [4]: 3 of 6
- survivor count [5]: 0 of 6

Compound: C(/CCc1ccccc1)=N\Nc1nnc(N/N=C/CCc2ccccc2)c2ccccc12
- survivor count (dose: 400.0 mg/kg/injection, schedule: Q01DX001 (ip), vehicle: carboxymethylcellulose (CMC)): 2 of 4

Compound: CSc1ccc(NC(=O)Nc2ccccc2C(N)=O)cc1
- survivor count [5]: 6 of 6

Compound: CCCCOC(=O)COc1cc(Cl)c(Cl)cc1Cl
- survivor count (dose: 400.0 mg/kg/injection, schedule: Q04DX002 (ip), vehicle: saline with Tween-80): 1 of 3

Compound: CCCNC(=O)c1cccc(-c2cccc(C(=O)NCCC)c2)c1
- survivor count (dose: 100.0 mg/kg/injection, schedule: Q01DX001 (ip), vehicle: other): 4 of 4
- survivor count (dose: 400.0 mg/kg/injection, schedule: Q01DX001 (ip), vehicle: other): 1 of 4

Compound: CN(C)N=Nc1ccc([N+](=O)[O-])cc1Cl
- T/C (dose: 200.0 mg/kg/injection, schedule: Q01DX009 (ip), vehicle: saline with Tween-80): 138 % of control
- survivor count [6]: 4 of 6
- survivor count (dose: 400.0 mg/kg/injection, schedule: Q01DX009 (ip), vehicle: saline with Tween-80): 6 of 6

Compound: C[N+]1(C)CCN(c2ccccc2)CC1
- survivor count (dose: 37.5 mg/kg/injection, schedule: Q01DX001 (ip), vehicle: saline): 0 of 6
- survivor count (dose: 75.0 mg/kg/injection, schedule: Q01DX001 (ip), vehicle: saline): 0 of 6
- survivor count (dose: 150.0 mg/kg/injection, schedule: Q01DX001 (ip), vehicle: saline): 0 of 6
- survivor count (dose: 300.0 mg/kg/injection, schedule: Q01DX001 (ip), vehicle: saline): 0 of 6

Compound: N#Cc1ccc(OC(=O)c2ccc(N=C(N)N)cc2)cc1
- survivor count [5]: 3 of 6

Compound: OC(c1ccccc1)(c1ccccc1)C1CCCCC1=C(c1ccccc1)c1ccccc1 (centres undefined)
- survivor count [4]: 6 of 6

Compound: CCC(CC)OCCN1CCN(CCCN2c3ccccc3Sc3ccc(C(F)(F)F)cc32)CC1
- survivor count (dose: 3.12 mg/kg/injection, schedule: Q01DX009 (ip), vehicle: saline): 6 of 6
- survivor count (dose: 6.25 mg/kg/injection, schedule: Q01DX009 (ip), vehicle: saline): 6 of 6
- survivor count (dose: 12.5 mg/kg/injection, schedule: Q01DX009 (ip), vehicle: saline): 2 of 6
- survivor count (dose: 25.0 mg/kg/injection, schedule: Q04DX003 (ip), vehicle: saline with Tween-80): 3 of 6
- survivor count (dose: 50.0 mg/kg/injection, schedule: Q04DX003 (ip), vehicle: saline with Tween-80): 1 of 6
- survivor count (dose: 100.0 mg/kg/injection, schedule: Q04DX003 (ip), vehicle: saline with Tween-80): 0 of 6

Compound: CN=C(NC)N(C)/N=C/C(C)=N/N(C)C(=NC)NC
- survivor count (dose: 120.0 mg/kg/injection, schedule: Q01DX Z (ip), vehicle: methylcellulose (MC)): 4 of 6
- survivor count (dose: 960.0 mg/kg/injection, schedule: Q01DX Z (oral), vehicle: methylcellulose (MC)): 3 of 6

Compound: CCNC(C)CC(C)C (centres undefined)
- survivor count (dose: 200.0 mg/kg/injection, schedule: Q04DX003 (ip), vehicle: saline with Tween-80): 0 of 6
- survivor count (dose: 400.0 mg/kg/injection, schedule: Q04DX003 (ip), vehicle: saline with Tween-80): 0 of 6
